In this assay the target is T1, Gal4 DNA-binding domain (DB)-Pex19p (S. cerevisiae) (UniProt Q07418).
T1 sequence: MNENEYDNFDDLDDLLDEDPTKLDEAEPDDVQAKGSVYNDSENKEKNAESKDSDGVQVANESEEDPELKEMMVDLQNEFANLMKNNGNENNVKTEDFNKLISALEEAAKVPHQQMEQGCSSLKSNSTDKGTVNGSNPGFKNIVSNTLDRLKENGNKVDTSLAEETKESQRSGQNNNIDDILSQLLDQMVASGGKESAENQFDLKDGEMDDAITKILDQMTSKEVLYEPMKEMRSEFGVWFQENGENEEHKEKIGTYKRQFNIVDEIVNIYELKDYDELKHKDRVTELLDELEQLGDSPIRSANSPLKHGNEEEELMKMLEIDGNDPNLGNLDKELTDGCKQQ
Description: two-hybrid.

These are yes or no findings as the source states them, for the method shown. Some results given as binding are weak or reduced against the parent protein; the word gives no strength. Where a sequence is shown, tags or fusion partners need not be part of it.

B1: Gal4 activation domain (AD)-Pex34p (protein, UniProt P25584 1-144)
chain: MVSKKNTAEISAKDIWENIWSGVSSLLDFFAVLENLGVVNDKLYVSGLLRKVWLCYSCISVIKCVWKLIKLCKVKFKIDQRLDGEGNGLVKDKLINFKKKYNEHIRHITAALLQDLSYLMVLIYPGTRLFKRLSNIITLCRIIV
Consider B1, for which the binding result is listed as “binds”.
